No constants are given. Whether binding was seen depends on the method and setting. Where a sequence is shown, tags or fusion partners need not be part of it.
How the values were obtained:
[1] = molecular target: Tomato ASR1 (Abscisic, Stress, Ripening protein 1), untagged recombinant protein (tomato) (UniProt Q08655); test: SEC-MALS; analytic Superdex 75 with 90° static light scattering (SLS) and refractive index; buffer S75 (20 mM sodium phosphate pH 7.5, 500 mM NaCl) without Zn2+; 3 mg/mL (SLS), 63 ug in 100 uL (SEC); both purified
[2] = molecular target: Tomato ASR1 (Abscisic, Stress, Ripening protein 1), untagged recombinant protein (tomato) (UniProt Q08655); test: dynamic light scattering; 45 uM ASR1 (legend: 40 uM), buffer T, 25°C, with 5 and 10 uM Zn2+; both purified
[3] = molecular target: Tomato ASR1 (Abscisic, Stress, Ripening protein 1), untagged recombinant protein (tomato) (UniProt Q08655); test: SEC-MALS; analytic Superdex 75 with static light scattering; buffer S75 with 10 uM Zn2+; both purified
[4] = molecular target: Tomato ASR1 (Abscisic, Stress, Ripening protein 1), untagged recombinant protein (tomato) (UniProt Q08655); test: dynamic light scattering; 45 uM ASR1 (legend: 40 uM), buffer T, 25°C, without Zn2+; both purified

binding [3]: no binding (condition: with 10 uM Zn2+)
B1: Tomato ASR1 (Abscisic, Stress, Ripening protein 1), untagged recombinant protein (natural protein, UniProt Q08655 1-115, looked up)
chain: MEEEKHHHHHLFHHKDKAEEGPVDYEKEIKHHKHLEQIGKLGTVAAGAYALHEKHEAKKDPEHAHKHKIEEEIAAAAAVGAGGFAFHEHHEKKDAKKEEKKKLRGDTTISSKLLF
notes: ASR1 of tomato; 'peaks corresponding to the expected full-length protein were pooled'; 12.7 kDa by SLS; The cloning of ASR1 alone is not described; also called untagged ASR1; ASR1 recombinant protein
binding [1]: no binding (condition: without Zn2+; 3 mg/mL) | binding [2]: no binding (condition: with 5 and 10 uM Zn2+; 45 uM) | binding [4]: no binding (condition: without Zn2+; 45 uM)

— paper PMC6107238, “Conformational plasticity of the intrinsically disordered protein ASR1 modulates its function as a drought stress-responsive gene” (PLoS ONE, 2018)
